# Reference: doi:10.1101/2023.09.13.557663
# No constants are given. Whether binding was seen depends on the method and setting. Binding seen in cells or lysates may run through a third protein. These calls come from enrichment with a bait or labelling near it, and not all partners need be listed.
# Molecular target: wtEGFR-TurboID (transient, HEK293T) (UniProt P00533)
# Experiment: proximity labelling
row,Substance,binding
1,ARPC1B (from UniProt O15143 1-372),binds
2,Gab2 (from UniProt Q9UQC2 1-676),binds
3,MAP4K5 (from UniProt Q9Y4K4 1-846),binds
4,MYO6 (from UniProt Q9UM54 1-1294),binds
5,STAM (from UniProt Q92783 1-540),binds
6,STAT2 (from UniProt P52630 1-851),binds
7,VPS37A (from UniProt Q8NEZ2 1-397),binds
8,deubiquitinase BRCC3 (from UniProt P46736 1-316),binds
